# Reference: paper PMC10789121, “Amine Basicity of Quinoline ATP Synthase Inhibitors Drives Antibacterial Activity against Pseudomonas aeruginosa” (ACS Medicinal Chemistry Letters, 2023)
# System: PA electron transport chain
# Assay: Electron transport activity (ACMA fluorescence quenching) in PA 9027 inverted membrane vesicles
# Type: biochemical, Pseudomonas aeruginosa
# Text: The assay for PA ATP synthase activity in EC DK8/pASH20 membrane vesicles requires a functional EC ETC, so potent inhibition of the EC ETC by any compound would interfere with the determination of its IC50 for PA ATP synthase. […] Furthermore, potent inhibition of PA ETC could be an alternative mechanism of action for the antibacterial activity of the current series.
# Determination of electron transport activity. As previously described,11 inverted membrane vesicles from PA 9027 or E. coli DK8 pASH20 were added to HMK buffer containing 0.3 µg/mL 9-amino-6-chloro-2-methoxyacridine (ACMA) and 0-64 µg/mL test compound in DMSO. After measurement of baseline ACMA fluorescence for 60 s, redox-driven H+ pumping was initiated by addition of NADH to 0.8 mM, and fluorescence quenching was monitored for 120 s before addition of nigericin to 0.5 µg/mL. Relative activity is reported as the minimum fluorescence value normalized to the maximum fluorescence value following addition of nigericin.
row,SMILES,Fold difference = [PA ETC IC50]/[PA ATP synthase IC50]
1,CN(C)CCCCNCc1cc2ccccc2nc1SCc1ccccc1 [Compound 8],26 [26]
2,CCN1CCC(CCNCc2cc3ccccc3nc2SCc2ccccc2)CC1 [Compound 14],26 [26]
3,c1ccc(CSc2nc3ccccc3cc2CNCCC2CCN(C3CCCC3)CC2)cc1 [Compound 16],14 [14]
